Measured values published in PubChem BioAssay AID1347076 (National Center for Advancing Translational Sciences (NCATS), 2019).
About 13,000 (3.2%) of roughly 400,000 compounds were called active. Inconclusive results, whose numbers are uncertain, are shown with a selection of clear calls. Calls follow the shape of the dose curve; as a rule, active = well fitted cell-killing curve with a large enough effect; inconclusive = small, poorly fitted or top-dose-only effect, or effect the other way; inactive = flat fitted curve, though single readings scatter. A potency beside an inconclusive call is a rough fit, not a confirmed value.

Experiment: qHTS assay for MDR1-selective chemotherapeutics: Primary screen using the drug-selected MDR subline cells KB-V1; also: nearly all actives have a fitted effect of over 60% in size
Conditions: KB-V1 MDR cells viability, CellTiter-Glo, 72 h; activity change, negative = cytotoxicity: at 46.1 µM (top of the series)
In short: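 qHTS viability screen in drug-selected KB-V1 MDR cells: 72 h compound treatment at 37 degrees C, ATP luminescence end point.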
% is scaled to controls: 0 for no effect and ±100 for the full control effect; potency is read from the fitted curve at half-maximal effect.

| SMILES | Potency | activity change, negative = cytotoxicity |
| --- | --- | --- |
| COc1cccc(CNc2ccc(F)c(Cl)c2)c1O | inactive | – |
| COc1ccccc1OCCn1c(=S)[nH]c2ccccc21 | active: 23.1 µM | – |
| COc1ccccc1CC(=O)Nc1ccc(S(=O)(=O)N2CCCCC2)cc1 | inconclusive: 3.26 µM [cytotoxic, partial curve, poor fit] | – |
| CSc1nsc(SCC(=O)Nc2ccc(C(C)=O)cc2)n1 | inactive | – |
| Cc1csc(NC(=O)c2cc3c(s2)CCCCC3)n1 | inconclusive: 10.3 µM [cytotoxic, partial curve, poor fit] | – |
| CC(C)CSc1nnc(-c2ccccc2)c(-c2ccccc2)n1 | inactive | – |
| Cc1ccc(N=Nc2c(C)[nH]n(C(N)=S)c2=O)cc1C | inconclusive: 25.9 µM [cytotoxic, single point] | – |
| COc1cc(C2NC(=O)NC(C)=C2C(=O)OCC2CCCCC2)ccc1O (centres undefined) | inconclusive: 0.731 µM [rising, full curve, poor fit] | – |
| O=C(NCc1ccncc1)[C@@H]1CCCN1C(=O)[C@@H]1CCCN1C(=O)c1cccs1 | inconclusive: 32.6 µM [cytotoxic, single point] | – |
| Cc1ccc(NC(=O)c2oc3ccc(S(=O)(=O)N4CCCCCC4)cc3c2C)cc1Cl | inactive | – |
| O=C(Nc1cc(Cl)ccc1Cl)P(=O)(O)c1ccccc1 | inactive | – |
| CCOC(=O)c1ccc(-n2ccnc2)c(NC(=O)c2ccc(Cl)cc2)c1 | active: 14.6 µM | – |
| NC(=S)NN=C1CSSC1 | inconclusive: 18.4 µM [cytotoxic, single point] | – |
| CC(=O)c1c(CC(=O)O)[nH]n(-c2nc3ccccc3s2)c1=O | inconclusive: 18.4 µM [cytotoxic, single point] | – |
| COc1ccc(C)c2sc(N(Cc3cccnc3)C(C)=O)nc12 | inactive | – |
| NC(=O)C(CC(=O)O)NC(=O)[C@@H]1CCCNc2c(I)cc([N+](=O)[O-])cc2C(=O)N[C@@H](CO)C(=O)N[C@@H](Cc2ccc(O)cc2)C(=O)N1 (some centres undefined) | inconclusive: 23.1 µM [rising, single point] | – |
| CCCN1C(=O)c2[nH]nc(-c3ccccc3O)c2C1c1ccc(OCc2ccccc2)c(OCC)c1 (centres undefined) | inactive | – |
| Cc1noc(C)c1COc1cccc(C(=O)N2CCN(C/C=C/c3ccccc3)CC2)c1 | inconclusive: 5.8 µM [cytotoxic, partial curve, poor fit] | – |
| Cc1ccc(Cc2c(-c3ccco3)nc3c4ccccc4ccn23)cc1 | inconclusive: 18.4 µM [cytotoxic, single point] | – |
| O=C(NC1CCCCC1)C(c1ccccn1)N(C(=O)Cc1cccs1)c1ccc(Cl)cc1 (centres undefined) | inconclusive: 7.31 µM [cytotoxic, partial curve] | – |
| Cc1cc(F)ccc1S(=O)(=O)N1CCCOC1CNC(=O)C(=O)NCCc1ccccc1 (centres undefined) | inconclusive: 8.2 µM [cytotoxic, partial curve] | – |
| O=C(O)CCC(=O)Nc1ccc(Oc2ncnc3cc(Cl)ccc23)nc1 | inactive | – |
| COC(=O)C(CC(=O)c1ccc(Br)cc1)n1ccnc1 (centres undefined) | inactive | – |

| SMILES | Potency | activity change, negative = cytotoxicity |
| --- | --- | --- |
| O=C(OCc1cnc(Cl)s1)c1ccc(Cl)cc1 | inconclusive: 20.6 µM [rising, single point] | – |
| Cc1ccccc1OCC(=O)N/N=C/c1cccc(Oc2ccc([N+](=O)[O-])cc2[N+](=O)[O-])c1 | inconclusive: 20.6 µM [cytotoxic, single point] | – |
| CN(C)c1ccc(C(c2ccc(N(C)C)cc2)c2ccc([N+](=O)[O-])cc2)cc1 | inconclusive: 29.1 µM [cytotoxic, single point] | – |
| CCCn1c(SC(C)C(=O)NC2CCCC(C)C2C)n[nH]c1=O (centres undefined) | inactive | – |
| COc1ccc2c3c([nH]c2c1)[C@H]1C[C@H]2[C@H](C[C@@H](O)[C@H](OC)[C@H]2C(=O)O)CN1CC3 | inactive | – |
| S=C(NCc1ccco1)N1CCN(c2ccccc2Cl)CC1 | inconclusive: 0.0065 µM [rising, full curve, poor fit] | – |
| CCc1ccc(OCC(=O)NC(C)C)cc1 | inconclusive: 29.1 µM [rising, single point] | – |
| CCOc1ccc2nc(NC(=O)CS(=O)(=O)c3ccccc3)sc2c1 | inactive | – |
| O=C(NCCc1ccccn1)c1cc(-c2ccc(Cl)cc2)nc2ccccc12 | inconclusive: 23.1 µM [cytotoxic, partial curve, poor fit] | – |
| Cc1cccc(N2CCN(CCCNC(=O)C3CCCN(c4ncnc5c4nc4n5CCCCC4)C3)CC2C)c1 (centres undefined) | inconclusive: 16.4 µM [cytotoxic, single point] | – |
| COc1ccc(C2CC(c3cccc(C(F)(F)F)c3)=NN2c2ccc(S(N)(=O)=O)cc2)cc1 (centres undefined) | inconclusive: 20.6 µM [cytotoxic, single point] | – |
| CCn1cc(CN(C)S(=O)(=O)c2ccc3ccccc3c2)c(C)n1 | inconclusive: 11.6 µM [cytotoxic, partial curve, poor fit] | – |
| O=C(NCc1ccc2c(c1)OCO2)c1ccc2c(c1)OCCO2 | inconclusive: 29.1 µM [cytotoxic, partial curve, poor fit] | – |
| CCCOc1ccc(C(CC(=O)O)NC(=O)C(c2ccccc2)c2ccccc2)cc1 (centres undefined) | inconclusive: 0.731 µM [rising, full curve, poor fit] | – |
| Cc1cccc(OCC(=O)OCC(=O)N2CCCc3ccccc32)c1C | inconclusive: 13 µM [rising, partial curve, poor fit] | – |
| COc1ccc(-c2cn3cc(C(F)(F)F)cc(Cl)c3n2)cc1 | inconclusive: 20.6 µM [cytotoxic, partial curve] | – |
| O=C(N/N=C/c1ccc(O)cc1)c1cccc(C(F)(F)F)c1 | inconclusive: 1.64 µM [rising, partial curve, poor fit] | – |
| CN(CCN1CCOCC1)C(=O)C1CCC(=O)N(Cc2ccc(Cl)cc2)C1 (centres undefined) | inactive | – |
| O=C(CSC1CS(=O)(=O)c2cc([N+](=O)[O-])ccc21)NNC(=O)c1ccccc1 (centres undefined) | inactive | – |
| C#CCOC(=O)C(NC(=O)c1ccccc1)=C1CCCCC1 | inconclusive: 20.6 µM [cytotoxic, single point] | – |
| C=CC[C@H](CC(=O)N(CCO)Cc1ccccc1)C(=O)N[C@@H](COC(=O)[C@@H](CC=C)Cc1ccc(F)cc1)Cc1ccccc1 | inconclusive: 29.1 µM [cytotoxic, single point] | – |
| O=C(COC(=O)c1ccco1)Nc1cccc(Br)c1 | inconclusive: 0.146 µM [cytotoxic, full curve] | – |
| O=C(NNc1nc(-c2ccc(Cl)cc2)cs1)c1ccco1 | active: 20.6 µM | – |

| SMILES | Potency | activity change, negative = cytotoxicity |
| --- | --- | --- |
| COc1ccc(C2CC(=O)c3cc(-c4nc(-c5cccc([N+](=O)[O-])c5)cs4)c(=O)n(-c4ccc(C)c(C)c4)c3C2)cc1 (centres undefined) | inactive | – |
| COc1ccc(C2=NN(C(=O)/C=C/c3ccccc3)C(c3ccccc3)C2)c(OC(C)=O)c1 (centres undefined) | active: 2.91 µM | – |
| CC(C)Oc1ccc(C(=O)Nc2ccc3c(c2)CCCN3C(=O)c2cccs2)cc1 | inconclusive: 29.1 µM [cytotoxic, single point] | – |
| CC1(C)CC(=O)C2=C(C1)NC1=C(C(=O)c3ccccc31)C2c1ccccc1 (centres undefined) | active: 16.4 µM | – |
| CCC(=O)N1c2ccc(S(=O)(=O)N3CCN(c4ccc([N+](=O)[O-])cc4)CC3)cc2CC1C (centres undefined) | inactive | – |
| CCN(CC(=O)Nc1cc(S(=O)(=O)N2CCOCC2)ccc1C)Cc1ccccc1 | inconclusive: 6.51 µM [cytotoxic, partial curve] | – |
| Cn1nc(C(F)(F)F)c2cc(C(=O)Nc3ccc(F)c(Cl)c3)sc21 | inconclusive: 29.1 µM [cytotoxic, single point] | – |
| COc1ccc2c(CN(C)c3ccccc3)cc(=O)oc2c1 | active: 18.4 µM | – |
| CCCCCOP(=O)(c1ccccc1)c1ccccc1 | inconclusive: 11.6 µM [cytotoxic, partial curve] | – |
| COc1ccc(C2Nc3ccccc3C(=O)N2c2ccccc2F)cc1COc1ccc(NC(C)=O)cc1 (centres undefined) | inactive | – |
| CC(C)Oc1ccc(CN2CCC(n3nccc3NC(=O)CCc3ccccc3)CC2)cc1 | inactive | – |
| C=C(C)COc1ccc(-c2[nH]ncc2-c2ccccc2OC)c(O)c1 | inconclusive: 23.1 µM [cytotoxic, single point] | – |
| Cc1ccc(Cl)cc1N(CC(=O)Nc1cccc(N(C)S(C)(=O)=O)c1)S(C)(=O)=O | inactive | – |
| COc1ccc(CN2C(=O)C(CC(=O)NCCCCc3ccccc3)CC(C(=O)N3CCOCC3)=C2C)cc1 (centres undefined) | inactive | – |
| CCOC(=O)C1(C)C=C(Nc2ccc(Br)cc2)C(=O)N1c1ccccc1 (centres undefined) | inconclusive: 23.1 µM [rising, single point] | – |
| COCCOc1ccc(C(F)(F)F)cc1NC(=O)CN1C(=O)NC2(CCCc3ccccc32)C1=O (centres undefined) | inactive | – |
| Cc1ccc(NC(=O)CSc2nc(C)c(Cc3ccccc3)c(=O)[nH]2)cc1C | – | inconclusive: 35.8% |
| CN(c1cccc(NC(=O)c2ccc(CN3CCc4ccccc4C3)cc2)c1)S(C)(=O)=O | inconclusive: 29.1 µM [cytotoxic, single point] | – |
| Cc1ccc(C(=O)OCC(=O)N2CCC(C)CC2)cc1S(=O)(=O)N1CCOCC1 | inactive | – |
| CC(=O)N1c2c(cc(Br)cc2S(=O)(=O)N2CCN(C(=O)c3ccco3)CC2)CC1C (centres undefined) | inconclusive: 23.1 µM [cytotoxic, single point] | – |
| Cc1ccc(S(=O)(=O)N2CCC(C(=O)N3CCC(C(=O)NCc4cccnc4)CC3)CC2)cc1 | inactive | – |
| CSc1ccc(CCNC(=O)C2CCCN(c3ncnc4c3nc3n4CCCCC3)C2)cc1 (centres undefined) | inactive | – |
| CCc1ccc(N(C(=O)CCC(=O)Nc2cc(C)on2)C(C(=O)NC(C)(C)C)c2ccc(OC)cc2)cc1 (centres undefined) | inconclusive: 5.8 µM [cytotoxic, partial curve] | – |

Reformatted field by field: part of the list above.
CCN(CC(=O)Nc1cc(S(=O)(=O)N2CCOCC2)ccc1C)Cc1ccccc1
  Potency: inconclusive: 6.51 µM [cytotoxic, partial curve]
Cn1nc(C(F)(F)F)c2cc(C(=O)Nc3ccc(F)c(Cl)c3)sc21
  Potency: inconclusive: 29.1 µM [cytotoxic, single point]
COc1ccc2c(CN(C)c3ccccc3)cc(=O)oc2c1
  Potency: active: 18.4 µM
CCCCCOP(=O)(c1ccccc1)c1ccccc1
  Potency: inconclusive: 11.6 µM [cytotoxic, partial curve]

3 structures out of the list, sorted by length of the SMILES, largest number first:

| SMILES | Potency | activity change, negative = cytotoxicity |
| --- | --- | --- |
| Cc1noc(C)c1COc1cccc(C(=O)N2CCN(C/C=C/c3ccccc3)CC2)c1 | inconclusive: 5.8 µM [cytotoxic, partial curve, poor fit] | – |
| COc1ccccc1OCCn1c(=S)[nH]c2ccccc21 | active: 23.1 µM | – |
| CCc1ccc(OCC(=O)NC(C)C)cc1 | inconclusive: 29.1 µM [rising, single point] | – |
